B1: P27641 (protein, UniProt P27641 1-732, looked up)
chain: MAWSGNKAAVVLCVDVGVAMGNSFPGEESPIEQAKKVMTMFVQRQVFSESKDEIALVLYGTDGTDNALAGKDQYQNITVCRHLMLPDFDLLEDIGNKIQPSSQQADFLDALIVCMDLIQRETIGKKFGKKHIEVFTDLSSPFSQDQLDVIICNLKKSGISLQFFLPFPIDKNGEPGERGDLDSGLDHLKPSFPQKGLTEQQKEGIRMVTRVMLSLEGEDGLDEIYSFSESLRQLCVFKKIERRSMPWPCQLTIGPNLSIKIVAYKSIVQEKFKKSWVVVDARTLKKEDIQKETVYCLNDDDETEVSKEDTIQGYRYGSDIIPFSKVDEEQMKYKSEGKCFSVLGFCKSSQVHRRFFMGHQVLKVFAAKDDEAAAVALSSLVHALDELNMVAIVRYAYDKRSNPQVGVAFPYIKDAYECLVYVQLPFMEDLRQYMFSSLKNNKKCTPTEAQLSAIDDLIDSMSLVKKNEEEDIVEDLFPTSKIPNPEFQRLYQCLLHRALHLQERLPPIQQHILNMLDPPTEMKAKCESPLSKVKTLFPLTEVIKKKNQVTAQDVFQDNHEEGPAAKKYKTEKEEDHISISSLAEGNITKVGSVNPVENFRFLVRQKIASFEEASLQLISHIEQFLDTNETLYFMKSMDCIKAFREEAIQFSEEQRFNSFLEALREKVEIKQLNHFWEIVVQDGVTLITKDEGPGSSITAEEATKFLAPKDKAKEDTTGPEEAGDVDDLLDMI
modifications: full-length
B2: Q6ZQ38 (protein, UniProt Q6ZQ38 1-1230, looked up)
chain: MASASYHISNLLEKMTSSDKDFRFMATNDLMTELQKDSIKLDDDSERKVVKMILRLLEDKNGEVQNLAVKCLGPLVSKVKEYQVETIVDTLCTNMLSDKEQLRDISSIGLKTVIGELPPASSGSALAANVCKKITGRLTSAIAKQEDVSVQLEALDIMADMLSRQGGLLVNFHPSILTCLLPQLTSPRLAVRKRTIIALGHLVMSCGNIVFVDLIEHLLSELSKNDSMSTTRTYIQCIAAISRQAGHRIGEYLEKIIPLVVKFCNVDDDELREYCIQAFESFVRRCPKEVYPHVSTIINICLKYLTYDPNYNYDDEDEDENAMDADGGDDDDQGSDDEYSDDDDMSWKVRRAAAKCLDAVVSTRHEMLPEFYKTVSPALIARFKEREENVKADVFHAYLSLLKQTRPVQSWLCDPDAMEQGDTPLTMLQSQVPNIVKALHKQMKEKSVKTRQCCFNMLTELVNVLPGALTQHIPVLVPGIIFSLNDKSSSSNLKIDALSCLYVILCNHSPQVFHPHVQALVPPVVACVGDPFYKITSEALLVTQQLVKVIRPLDQPSSFDATPYIKDLFTCTIKRLKAADIDQEVKERAISCMGQIICNLGDNLGPDLSNTLQIFLERLKNEITRLTTVKALTLIAGSPLKIDLRPVLGEGVPILASFLRKNQRALKLGTLSALDILIKNYSDSLTAAMIDAVLDELPPLISESDMHVSQMAISFLTTLAKVYPSSLSKISGSILNELIGLVRSPLLQGGALSAMLDFFQALVVTGTNNLGYMDLLRMLTGPVYSQSTALTHKQSYYSIAKCVAALTRACPKEGPAVVGQFIQDVKNSRSTDSIRLLALLSLGEVGHHIDLSGQLELKSVILEAFSSPSEEVKSAASYALGSISVGNLPEYLPFVLQEITSQPKRQYLLLHSLKEIISSASVAGLKPYVENIWALLLKHCECAEEGTRNVVAECLGKLTLIDPETLLPRLKGYLISGSSYARSSVVTAVKFTISDHPQPIDPLLKNCIGDFLKTLEDPDLNVRRVALVTFNSAAHNKPSLIRDLLDSVLPHLYNETKVRKELIREVEMGPFKHTVDDGLDIRKAAFECMYTLLDSCLDRLDIFEFLNHVEDGLKDHYDIKMLTFLMLVRLSTLCPSAVLQRLDRLVEPLRATCTTKVKANSVKQEFEKQDELKRSAMRAVAALLTIPEAEKSPLMSEFQSQISSNPELAAIFESIQKDSSSTNLESMDTS
modifications: full-length
B3: Q8VIJ6 (protein, UniProt Q8VIJ6 1-699, looked up)
chain: MSRDRFRSRGGGGGGFHRRGGGGGRGGLHDFRSPPPGMGLNQNRGPMGPGPGGPKPPLPPPPPHQQQQQPPPQQPPPQQPPPHQQPPPHQPPHQQPPPPPQESKPVVPQGPGSAPGVSSAPPPAVSAPPANPPTTGAPPGPGPTPTPPPAVPSTAPGPPPPSTPSSGVSTTPPQTGGPPPPPAGGAGPGPKPGPGPGGPKGGKMPGGPKPGGGPGMGAPGGHPKPPHRGGGEPRGGRQHHAPYHQQHHQGPPPGGPGPRTEEKISDSEGFKANLSLLRRPGEKTYTQRCRLFVGNLPADITEDEFKRLFAKYGEPGEVFINKGKGFGFIKLESRALAEIAKAELDDTPMRGRQLRVRFATHAAALSVRNLSPYVSNELLEEAFSQFGPIERAVVIVDDRGRSTGKGIVEFASKPAARKAFERCSEGVFLLTTTPRPVIVEPLEQLDDEDGLPEKLAQKNPMYQKERETPPRFAQHGTFEYEYSQRWKSLDEMEKQQREQVEKNMKDAKDKLESEMEDAYHEHQANLLRQDLMRRQEELRRMEELHSQEMQKRKEMQLRQEEERRRREEEMMIRQREMEEQMRRQREESYSRMGYMDPRERDMRMGGGGTMNMGDPYGSGGQKFPPLGGGGGIGYEANPGVPPATMSGSMMGSDMRTERFGQGGAGPVGGQGPRGMGPGTPAGYGRGREEYEGPNKKPRF
modifications: full-length
B4: Q9WU78 (protein, UniProt Q9WU78 1-869, looked up)
chain: MASFIWVQLKKTSEVDLAKPLVKFIQQTYPSGGEEQAQYCRAAEELSKLRRSALGRPLDKHEGALETLLRYYDQICSIEPKFPFSENQICLTFTWKDAFDKGSLFGGSVKLALASLGYEKSCVLFNCAALASQIAAEQNLDNDEGLKTAAKQYQFASGAFLHIKDTVLSALSREPTVDISPDTVGTLSLIMLAQAQEVFFLKATRDKMKDAIIAKLANQAADYFGDAFKQCQYKDTLPKEVFPTLAAKQCIMQANAEYHQSILAKQQKKFGEEIARLQHAAELIKNVASRYDEYVNVKDFSDKINRALTAAKKDNDFIYHDRVPDLKDLDPIGKATLVKPTPVNVPVSQKFTDLFEKMVPVSVQQSLAVFSQRKADLVNRSIAQMREATTLANGVLASLNLPAAIEDVSGDTVPQSILTKSTSVVEQGGIQTVDQLIKELPELLQRNREILEESLRLLDEEEATDNDLRAKFKDRWQRTPSNDLYKPLRAEGAKFRAVLDKAVQADGQVKERYQSHRDTIALLCKPEPELNAAIPSANPAKTMQGSEVVSVLKSLLSNLDEIKKERESLENDLKSVNFDMTSKFLTALAQDGVINEEALSVTELDRIYGGLTSKVQESLKKQEGLLKNIQVSHQEFSKMKQSNNEANLREEVLKNLATAYDNFVELVANLKEGTKFYNELTEILVRFQNKCSDIVFARKTERDELLKDLQQSIAREPSAPSIPPPAYQSSPAAGHAAAPPTPAPRTMPPAKPQPPARPPPPVLPANRVPPASAAAAPAGVGTASAAPPQTPGSAPPPQAQGPPYPTYPGYPGYCQMPMPMGYNPYAYGQYNMPYPPVYHQSPGQAPYPGPQQPTYPFPQPPQQSYYPQQ
modifications: full-length
B5: P59016 (protein, UniProt P59016 1-617, looked up)
chain: MAFPHRLDAPELPDFSMLKRLARDQLIYLLEQLPGKKDLFIEADLMSPLDRIANVSILKQHEVDKLYKVENKPALSANEQLCFLVRPRIKNMRYIASLVNADKLAGRIRKYKVILSPQKFYACEMVLEEEGVYGDVSCDEWAFSLLPLDVDLLSMELPEFFRDYFLEGDQRWINTVAQALHLLSTLYGPFPNCYGIGRCAKMSYDLWRKLEEEEDSETKGRKPEIGHIFLLDRDVDFVTALCSQVVYEGLVDDTFRIKCGSVDFGPEVTSSDKSLKVLLNAEDKVFSEIRNEHFSNVFGFLSQKARNLQAQYDRRRGMDIKQMKNFVSQELKGLKQEHRLLSLHIGACESIMKKKTKQDFQELIKTEHALLEGFNIRESTSYIEEHIDRQVSPIESLRLMCLLSITENGLIPKDYRSLKTQYLQSYGPEHLLTFSNLRRAGLLTEQAPGDTLTAVESKVSKLVTDKAAGKITDAFSSLAKRSNFRAISKKLNLIPRVDGEYDLKVPRDMAYVFSGAYVPLSCRIIEQVLDRRSWQGLDEVVRLLNCSEFAFTDTAKEDKASSESLRLILVVFLGGCTFSEISALRFLGREKGYRFIFLTTAVTNSARLMEAMSEVKS
modifications: full-length
B6: Q9CZD3 (protein, UniProt Q9CZD3 1-729, looked up)
chain: MPCLLPSLLRATRAALPLLSPPRVVAASASQRLLSAPAQPAASRSSMDSAEELLAPLRLAVRQQGDFVRKLKEDKAPQVDVDRAVAELKARKRVLEAKELALQPKDDIVDRAKMEDTLKRRFFYDQAFAIYGGVSGLYDFGPVGCALKNNIIQAWRQHFIQEEQILEIDCTMLTPEPVLKTSGHVDKFADFMVKDVKNGECFRADHLLKAHLQKLMSDKKCSAEKKSEMESVLAQLDNYGQQELADLFVNYNVKSPTTGNDLSPPVPFNLMFQTFIGPGGNMPGYLRPETAQGIFLNFKRLLEFNQGKLPFAAAQIGNSFRNEISPRSGLIRVREFTMAEIEHFVDPTEKDHPKFQSVADLCLYLYSAKAQVTGQSARKMRLGDAVEQGVINNSVLGYFIGRIYLYLTKVGISPDKLRFRQHMENEMAHYACDCWDAESKTSYGWIEIVGCADRSCYDLSCHARATKVPLVAEKPLKEPKTVNVVQFEPNKGAVGKAYKKDAKLVLEYLSACDECYISEMELLLSEKGEFTIETEGKTFQLTKDMVSVKRFQKTLHVEEVVPSVIEPSFGLGRIMYTILEHTFHVREGDEQRTFFSFPAVVAPFKCSVLPLSQNQEFMPFVKELSEALTRNGVSHKVDDSSGSIGRRYARTDEIGVAFGITIDFDTVNKTPHTATLRDRDSMRQIRAEVSELPNVVRDLANGNITWADVEARYPLFEGQETGKKETVEE
modifications: full-length

System: CA19-9 modified proteins
Experiment: CA19-9 IP/MS (iTRAQ) of organoid conditioned media after Dox treatment
Design: species or system mouse
Conditions: for 17 0H 5B1 (CA19-9 IP/MS relative abundance) / 17 0H NS19 (CA19-9 IP/MS relative abundance) / 17 8H 5B1 (CA19-9 IP/MS relative abundance) / 17 8H NS19 (CA19-9 IP/MS relative abundance): A217 organoid conditioned media; for 17 0H NS19 (CA19-9 IP/MS relative abundance) / 17 8H NS19 (CA19-9 IP/MS relative abundance) / 20 0H NS19 (CA19-9 IP/MS relative abundance) / 20 8H NS19 (CA19-9 IP/MS relative abundance): NS19-9; for 17 0H NS19 (CA19-9 IP/MS relative abundance): every printed value in this column is 1; for 20 0H 5B1 (CA19-9 IP/MS relative abundance) / 20 8H 5B1 (CA19-9 IP/MS relative abundance) / 20 0H NS19 (CA19-9 IP/MS relative abundance) / 20 8H NS19 (CA19-9 IP/MS relative abundance): A220 organoid conditioned media

Molecule	17 0H 5B1 (CA19-9 IP/MS relative abundance)	17 0H NS19 (CA19-9 IP/MS relative abundance)	17 8H 5B1 (CA19-9 IP/MS relative abundance)	20 0H 5B1 (CA19-9 IP/MS relative abundance)	20 8H 5B1 (CA19-9 IP/MS relative abundance)	17 8H NS19 (CA19-9 IP/MS relative abundance)	20 0H NS19 (CA19-9 IP/MS relative abundance)	20 8H NS19 (CA19-9 IP/MS relative abundance)
B1	3.472	1	3.891	3.988	5.176	–	–	–
B2	2.632	1	2.648	1.833	2.094	0.164	0.324	0.369
B3	4.604	1	4.737	3.735	4.567	0.874	0.799	0.654
B4	1.766	1	1.966	1.201	1.952	1.143	3.037	0.475
B5	2.626	1	1.678	1.306	1.554	0.297	0.113	0.258
B6	5.688	1	5.299	4.688	4.333	0.441	1.021	1.066
